# Assay results: PMC7658486
# No constants are given. Whether binding was seen depends on the method and setting. Some results given as binding are weak or reduced against the parent protein; the word gives no strength. Where a sequence is shown, tags or fusion partners need not be part of it.
# T1: bovine (full-length) IL-2Rα (cattle (Bos taurus)) (UniProt P12342)
# T1 sequence: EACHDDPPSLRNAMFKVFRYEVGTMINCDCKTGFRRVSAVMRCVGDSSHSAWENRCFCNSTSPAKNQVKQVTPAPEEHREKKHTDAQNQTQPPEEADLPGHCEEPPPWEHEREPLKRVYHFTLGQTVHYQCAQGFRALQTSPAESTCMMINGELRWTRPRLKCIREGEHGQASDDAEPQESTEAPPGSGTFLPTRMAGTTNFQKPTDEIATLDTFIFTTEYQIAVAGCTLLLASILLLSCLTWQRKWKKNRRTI
# Molecular target: T1, bovine (full-length) IL-2Rα (cattle (Bos taurus))
# Assay: flow cytometry on cells; live HEK293T cells co-transfected for a FLAG-tagged cytokine and a full-length (transmembrane) receptor alpha chain; two days after transfection stained with anti-FLAG M2 mAb; cytokine considered bound if the percentage of anti-FLAG-labeled cells was higher than in cells transfected for the cytokine alone
row,binding,Binder
1,binds,"bovine IL-2, FLAG-tagged (ligand, UniProt P05016 21-155) APTSSSTGNTMKEVKSLLLDLQLLLEKVKNPENLKLSRMHTFDFYVPKVNATELKHLKCLLEELKLLEEVLNLAPSKNLNPREIKDSMDNIKRIVLELQGSETRFTCEYDDATVNAVEFLNKWITFCQSIYSTMT"
2,no binding,"bovine IL-15, FLAG-tagged (ligand, UniProt Q28028 49-162) NWQYVINDLKTIEHLIQSIHMDATLYTESDAHPNCKVTAMQCFLLELRVILHESKNATIYEIIENLTMLANSNLSSIENKTELGCKECEELEEKSIKEFLKSFVHIVQMFINTS"
